Read-outs that look alike come from different tables or passages of the source. These are yes or no findings as the source states them, for the method shown. Binding seen in cells or lysates may run through a third protein. Some results given as binding are weak or reduced against the parent protein; the word gives no strength. Sequences can lack the tags named with a protein.
Experiments:
HA-TC45 [1] = target: T1, HA-TC45 (UniProt P17706); assay: co-IP
T1 sequence: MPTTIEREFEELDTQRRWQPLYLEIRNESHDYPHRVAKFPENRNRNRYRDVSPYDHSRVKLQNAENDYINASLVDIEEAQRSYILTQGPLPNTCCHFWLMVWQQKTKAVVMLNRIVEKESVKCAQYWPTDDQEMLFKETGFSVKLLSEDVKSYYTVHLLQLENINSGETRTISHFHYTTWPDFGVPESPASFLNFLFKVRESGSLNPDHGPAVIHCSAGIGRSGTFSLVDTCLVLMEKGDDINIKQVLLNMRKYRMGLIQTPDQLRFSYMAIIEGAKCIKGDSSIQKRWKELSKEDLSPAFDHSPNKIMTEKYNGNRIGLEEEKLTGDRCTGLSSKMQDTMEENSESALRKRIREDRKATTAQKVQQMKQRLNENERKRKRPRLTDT

The chains behind the UniProt entries cited, without tags or fusion partners. Where a name states a change or a piece, a line headed by the entry shows the natural chain unless it says otherwise. Residues count along the entry.
UniProt Q04206, whole entry: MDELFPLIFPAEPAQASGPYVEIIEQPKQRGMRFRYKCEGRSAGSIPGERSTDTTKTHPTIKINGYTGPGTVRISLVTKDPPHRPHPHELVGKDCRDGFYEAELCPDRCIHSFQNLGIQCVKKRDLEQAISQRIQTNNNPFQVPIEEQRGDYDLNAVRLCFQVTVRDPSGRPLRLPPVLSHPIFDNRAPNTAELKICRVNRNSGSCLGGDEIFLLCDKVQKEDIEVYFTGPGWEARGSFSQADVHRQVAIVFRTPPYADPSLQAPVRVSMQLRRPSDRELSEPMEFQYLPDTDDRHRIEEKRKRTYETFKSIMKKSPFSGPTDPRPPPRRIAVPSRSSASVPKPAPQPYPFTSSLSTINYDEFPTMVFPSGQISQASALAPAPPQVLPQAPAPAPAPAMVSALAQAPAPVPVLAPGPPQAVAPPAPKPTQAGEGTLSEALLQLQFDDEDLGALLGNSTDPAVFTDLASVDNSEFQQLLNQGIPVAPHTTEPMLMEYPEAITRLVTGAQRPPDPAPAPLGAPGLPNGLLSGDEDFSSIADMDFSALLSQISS
UniProt Q04206, 1-90: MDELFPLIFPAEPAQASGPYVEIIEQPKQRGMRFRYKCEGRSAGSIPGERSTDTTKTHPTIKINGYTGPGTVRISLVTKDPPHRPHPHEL

GST-TC45 = target: T2, GST-TC45 (UniProt P17706); assay: pull-down
T2 sequence: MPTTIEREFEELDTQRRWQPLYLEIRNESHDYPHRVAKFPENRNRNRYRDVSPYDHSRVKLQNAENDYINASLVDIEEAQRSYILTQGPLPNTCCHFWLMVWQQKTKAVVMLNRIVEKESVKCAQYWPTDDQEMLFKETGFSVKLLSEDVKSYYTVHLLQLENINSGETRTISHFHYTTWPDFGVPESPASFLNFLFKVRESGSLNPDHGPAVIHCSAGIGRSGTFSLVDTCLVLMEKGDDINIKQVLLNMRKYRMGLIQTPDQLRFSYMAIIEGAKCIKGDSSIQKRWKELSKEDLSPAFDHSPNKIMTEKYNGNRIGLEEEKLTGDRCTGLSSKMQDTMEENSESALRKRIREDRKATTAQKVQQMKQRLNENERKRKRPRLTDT

HA-TC45 [2] = target: T1, HA-TC45; assay: co-IP; remark: listed apart in the source
Myc-GdX [3] = target: T3, Myc-GdX (UniProt P11441); assay: co-IP
T3 sequence: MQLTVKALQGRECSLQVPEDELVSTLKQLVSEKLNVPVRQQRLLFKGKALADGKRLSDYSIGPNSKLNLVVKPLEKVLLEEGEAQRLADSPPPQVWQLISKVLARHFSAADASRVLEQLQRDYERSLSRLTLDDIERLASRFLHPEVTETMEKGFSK

HA-TC45 [4] = target: T1, HA-TC45; assay: co-IP; remark: listed apart in the source
Flag-tagged IKKε = target: T4, Flag-tagged IKKε (UniProt Q14164); assay: co-IP
T4 sequence: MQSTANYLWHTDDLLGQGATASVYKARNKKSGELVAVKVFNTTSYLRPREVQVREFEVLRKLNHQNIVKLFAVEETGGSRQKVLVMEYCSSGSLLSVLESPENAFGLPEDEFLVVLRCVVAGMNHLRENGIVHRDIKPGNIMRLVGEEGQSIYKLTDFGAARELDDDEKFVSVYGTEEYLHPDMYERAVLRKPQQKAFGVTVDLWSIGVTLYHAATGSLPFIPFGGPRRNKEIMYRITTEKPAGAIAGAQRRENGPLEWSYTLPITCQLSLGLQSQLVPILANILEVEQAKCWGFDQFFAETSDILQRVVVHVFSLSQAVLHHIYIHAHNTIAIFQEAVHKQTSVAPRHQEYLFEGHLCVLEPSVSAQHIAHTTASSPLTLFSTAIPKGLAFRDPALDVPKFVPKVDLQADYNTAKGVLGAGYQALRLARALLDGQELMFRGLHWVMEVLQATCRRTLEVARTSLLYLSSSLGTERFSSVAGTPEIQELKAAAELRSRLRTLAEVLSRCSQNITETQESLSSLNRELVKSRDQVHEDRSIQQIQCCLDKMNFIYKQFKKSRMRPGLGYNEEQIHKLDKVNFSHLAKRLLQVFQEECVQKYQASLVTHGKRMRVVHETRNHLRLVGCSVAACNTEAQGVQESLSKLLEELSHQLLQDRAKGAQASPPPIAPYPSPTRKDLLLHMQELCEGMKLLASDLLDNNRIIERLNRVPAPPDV

Flag-p65 = Flag-p65 (UniProt Q04206); assay: co-IP
Flag-tagged IKKα = target: T5, Flag-tagged IKKα (UniProt O15111); assay: co-IP
T5 sequence: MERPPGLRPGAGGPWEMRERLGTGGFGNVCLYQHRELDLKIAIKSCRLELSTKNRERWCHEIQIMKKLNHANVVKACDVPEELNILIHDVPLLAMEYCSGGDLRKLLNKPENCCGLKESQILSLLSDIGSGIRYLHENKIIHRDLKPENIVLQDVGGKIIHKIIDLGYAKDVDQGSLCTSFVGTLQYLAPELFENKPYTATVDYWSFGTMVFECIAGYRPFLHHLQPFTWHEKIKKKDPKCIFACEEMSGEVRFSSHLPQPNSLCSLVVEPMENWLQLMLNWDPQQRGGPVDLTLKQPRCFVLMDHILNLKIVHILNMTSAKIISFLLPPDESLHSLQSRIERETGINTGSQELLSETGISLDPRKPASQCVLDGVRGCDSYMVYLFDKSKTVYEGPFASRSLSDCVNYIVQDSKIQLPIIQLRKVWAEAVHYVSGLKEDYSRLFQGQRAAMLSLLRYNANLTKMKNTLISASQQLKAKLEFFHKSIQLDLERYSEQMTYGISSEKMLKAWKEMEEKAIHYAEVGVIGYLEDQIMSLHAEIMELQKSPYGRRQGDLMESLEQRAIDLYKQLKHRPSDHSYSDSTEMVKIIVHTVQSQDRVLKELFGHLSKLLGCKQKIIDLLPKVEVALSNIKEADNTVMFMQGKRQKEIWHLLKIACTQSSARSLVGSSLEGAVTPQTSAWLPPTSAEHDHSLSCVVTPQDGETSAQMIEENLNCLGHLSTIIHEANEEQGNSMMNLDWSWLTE

Flag-tagged IKKβ = target: T6, Flag-tagged IKKβ (UniProt O14920); assay: co-IP
T6 sequence: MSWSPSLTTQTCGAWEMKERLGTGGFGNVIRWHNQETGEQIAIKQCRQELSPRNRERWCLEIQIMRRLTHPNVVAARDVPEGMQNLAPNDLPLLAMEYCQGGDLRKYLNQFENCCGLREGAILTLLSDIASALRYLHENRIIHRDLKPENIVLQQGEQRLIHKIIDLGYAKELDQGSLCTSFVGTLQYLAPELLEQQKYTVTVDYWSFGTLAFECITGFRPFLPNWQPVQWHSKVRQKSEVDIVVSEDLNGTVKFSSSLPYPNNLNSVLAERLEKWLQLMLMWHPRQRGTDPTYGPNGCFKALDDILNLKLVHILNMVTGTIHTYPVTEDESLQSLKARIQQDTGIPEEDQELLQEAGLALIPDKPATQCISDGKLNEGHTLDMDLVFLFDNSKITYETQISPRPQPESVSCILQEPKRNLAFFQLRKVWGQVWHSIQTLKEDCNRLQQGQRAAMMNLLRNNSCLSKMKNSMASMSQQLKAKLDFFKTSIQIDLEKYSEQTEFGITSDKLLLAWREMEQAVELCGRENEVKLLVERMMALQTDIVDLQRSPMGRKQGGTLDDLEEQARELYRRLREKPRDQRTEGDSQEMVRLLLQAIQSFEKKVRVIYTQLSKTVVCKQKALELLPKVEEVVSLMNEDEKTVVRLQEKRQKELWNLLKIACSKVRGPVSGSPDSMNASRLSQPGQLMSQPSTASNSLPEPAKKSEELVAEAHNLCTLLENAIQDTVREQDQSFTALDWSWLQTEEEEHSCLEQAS

Flag-tagged WIP1 = target: T7, Flag-tagged WIP1 (UniProt O15297); assay: co-IP
T7 sequence: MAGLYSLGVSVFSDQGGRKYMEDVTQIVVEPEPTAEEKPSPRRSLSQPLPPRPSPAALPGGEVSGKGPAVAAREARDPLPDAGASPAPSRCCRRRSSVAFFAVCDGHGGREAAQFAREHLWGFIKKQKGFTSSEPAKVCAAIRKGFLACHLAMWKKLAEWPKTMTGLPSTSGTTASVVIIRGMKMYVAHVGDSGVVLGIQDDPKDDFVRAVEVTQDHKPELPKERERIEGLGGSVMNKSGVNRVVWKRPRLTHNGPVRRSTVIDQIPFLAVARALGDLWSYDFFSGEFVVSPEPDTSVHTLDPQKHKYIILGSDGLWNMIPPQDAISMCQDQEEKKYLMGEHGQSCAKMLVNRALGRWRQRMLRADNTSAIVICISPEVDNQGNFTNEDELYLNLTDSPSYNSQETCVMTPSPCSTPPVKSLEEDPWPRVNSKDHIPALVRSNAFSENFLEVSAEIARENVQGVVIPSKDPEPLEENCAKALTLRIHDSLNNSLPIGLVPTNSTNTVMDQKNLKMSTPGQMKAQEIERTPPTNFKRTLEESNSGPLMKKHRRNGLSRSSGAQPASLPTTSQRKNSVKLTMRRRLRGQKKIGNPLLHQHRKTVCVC

Myc-GdX [5] = target: T3, Myc-GdX; assay: co-IP; remark: listed apart in the source

Flag-p65 (from UniProt Q04206 1-551)
binding (HA-TC45 [1]): binds
binding (GST-TC45): binds
binding (HA-TC45 [2]): binds
binding (Myc-GdX [3]): no binding

Flag-p65-n6 (from UniProt Q04206 1-90) (domain or fragment)
binding (HA-TC45 [1]): no binding

Flag-tagged p65(Y100F) (from UniProt Q04206 1-551)
binding (HA-TC45 [1]): no binding

Flag-tagged p65(Y152F) (from UniProt Q04206 1-551)
binding (HA-TC45 [1]): binds

endogenous p65 protein (293T cells) (from UniProt Q04206 1-551)
binding (HA-TC45 [1]): binds

B1: Myc-GdX (protein, UniProt P11441 1-157)
chain: MQLTVKALQGRECSLQVPEDELVSTLKQLVSEKLNVPVRQQRLLFKGKALADGKRLSDYSIGPNSKLNLVVKPLEKVLLEEGEAQRLADSPPPQVWQLISKVLARHFSAADASRVLEQLQRDYERSLSRLTLDDIERLASRFLHPEVTETMEKGFSK
binding (HA-TC45 [4]): binds
binding (Flag-tagged IKKε): no binding
binding (Flag-p65): no binding
binding (Flag-tagged IKKα): no binding
binding (Flag-tagged IKKβ): no binding
binding (Flag-tagged WIP1): no binding

B2: HA-TC45 (enzyme, UniProt P17706-2 1-387)
chain: MPTTIEREFEELDTQRRWQPLYLEIRNESHDYPHRVAKFPENRNRNRYRDVSPYDHSRVKLQNAENDYINASLVDIEEAQRSYILTQGPLPNTCCHFWLMVWQQKTKAVVMLNRIVEKESVKCAQYWPTDDQEMLFKETGFSVKLLSEDVKSYYTVHLLQLENINSGETRTISHFHYTTWPDFGVPESPASFLNFLFKVRESGSLNPDHGPAVIHCSAGIGRSGTFSLVDTCLVLMEKGDDINIKQVLLNMRKYRMGLIQTPDQLRFSYMAIIEGAKCIKGDSSIQKRWKELSKEDLSPAFDHSPNKIMTEKYNGNRIGLEEEKLTGDRCTGLSSKMQDTMEENSESALRKRIREDRKATTAQKVQQMKQRLNENERKRKRPRLTDT
binding (Flag-p65): binds
binding (Myc-GdX [5]): binds

Source: publication doi:10.1101/376103
